No constants are given. Whether binding was seen depends on the method and setting. Some binding calls cover weakened binding; strength is not graded here.
Biological target: cynomolgus monkey BAFF (BAF-CM412B, Kactus) (cynomolgus monkey)
Test: SPR (Biacore)

binding: binds
Substance: TACI-Mab1 (from UniProt P0DOX7 1-214)
